# Laboratory results taken from the supplement of paper PMC3682954.
# Where “and” joins values, the source holds several entries; their conditions need not be identical. Identical values can stand only once. Counter-ions that a name gives are not always drawn. ± gives the standard deviation of the averaged measurements. Some of the results follow. Repeats are few or missing, and single values can be far off.
# Tested on: RAW 264.7
# Assay: HMGB1-induced TNF-alpha production relative to HMGB1-stimulated control; higher = more TNF-alpha secretion (less inhibition)
# Conditions: stimulus: HMGB1 5 ug/ml, 18 h
# [1] = compound concentration: 1 ug/ml
Compound,HMGB1-induced TNF-alpha production (compound concentration: 3 uM),HMGB1-induced TNF-alpha production [1]
Cn1c(=O)c2nc[nH]c2n(C)c1=O,92.9%,
Cn1c(=O)c2nc[nH]c2n(C)c1=O [Theophylline],115%,
Cn1c(=O)c2nc[nH]c2n(C)c1=O [Theophylline monohydrate],123%,
C=C1c2cccc(O)c2C(=O)C2=C(O)[C@]3(O)C(=O)C(C(N)=O)=C(O)[C@@H](N(C)C)[C@@H]3[C@@H](O)[C@H]12,103%,
C=C1c2cccc(O)c2C(=O)C2=C(O)[C@]3(O)C(=O)C(C(N)=O)=C(O)[C@@H](N(C)C)[C@@H]3[C@@H](O)[C@H]12 [Methacycline hydrochloride],94.1%,
COc1cccc(-c2cc(=O)c3cc(O)ccc3o2)c1,,62.5%
c1ccc(C2CN3CCSC3=N2)cc1 (stereo not drawn),93.9%,
c1ccc(C2CN3CCSC3=N2)cc1 (stereo not drawn) [Tetramisole hydrochloride],79.9 ± 23%,
COc1cc2cc3c4cc(OC)c(OC)cc4cc[n+]3c(C)c2cc1OC,102%,
CC(COc1ccc(/C=C/c2ccccc2)cc1)[N+](C)(C)C (stereo not drawn),93.4%,
CC[C@]1(O)C[C@@H]2CN(CCc3c([nH]c4ccccc34)[C@@](C(=O)OC)(c3cc4c(cc3OC)N(C)[C@H]3[C@@](O)(C(N)=O)[C@H](O)[C@]5(CC)C=CCN6CC[C@]43[C@@H]65)C2)C1,120%,
CC[C@]1(O)C[C@@H]2CN(CCc3c([nH]c4ccccc34)[C@@](C(=O)OC)(c3cc4c(cc3OC)N(C)[C@H]3[C@@](O)(C(N)=O)[C@H](O)[C@]5(CC)C=CCN6CC[C@]43[C@@H]65)C2)C1 [Vindesine],130%,
O=C(N[C@@H](Cc1ccccc1)C(=O)CCl)OCc1ccccc1 [Z-L-Phe chloromethyl ketone],19.6%,
Cc1cc2c(cc1Cl)N(C(=O)Nc1ccc(Oc3cccnc3C)nc1)CC2,106%,
Cc1scc2c1N(C(=O)CN1CCN(C)CC1)c1ccccc1NC2=O [Telenzepine],112%,
Cc1scc2c1N(C(=O)CN1CCN(C)CC1)c1ccccc1NC2=O [Telenzepine dihydrochloride],84.2 ± 20%,
Cc1scc2c1N(C(=O)CN1CCN(C)CC1)c1ccccc1NC2=O,79.4%,
CSCC[C@H](N)C(=O)Nc1ccc2c(C)cc(=O)oc2c1 [L-Methionine 7-amido-4-methylcoumarin trifluoroacetate salt],,70.6%
"CN(C)CCC(c1ccc(Cl)cc1)c1ccccn1 (single isomer, unassigned; (+)) [(+)-Chlorpheniramine maleate]",74.7%,
CO/N=C(\C(=O)N[C@@H]1C(=O)N2C(C(=O)O)=C(CSc3nc(=O)c(O)nn3C)CS[C@H]12)c1csc(N)n1 [Ceftriaxone sodium],78.8%,
CO/N=C(\C(=O)N[C@@H]1C(=O)N2C(C(=O)O)=C(CSc3nc(=O)c(O)nn3C)CS[C@H]12)c1csc(N)n1,97.8%,
Oc1ccccc1O [Pyrocatechol],84.6%,
COc1cccc(NC(=O)/C=C/c2ccc(Cl)cc2)c1,95.8%,
COc1cccc(-c2oc3ccccc3c(=O)c2O)c1,,76.8%
FC(F)(F)c1ccccc1-n1ccnc1 [1-[2-(Trifluoromethyl)phenyl]imidazole],94%,

Compound,HMGB1-induced TNF-alpha production (compound concentration: 3 uM),HMGB1-induced TNF-alpha production [1]
COc1ccc(CCN(C)CCCC(C#N)(c2cc(OC)c(OC)c(OC)c2)C(C)C)cc1OC (racemic) [(±)-Methoxyverapamil hydrochloride],115%,
CCCCOC(=O)NS(=O)(=O)c1sc(CC(C)C)cc1-c1ccc(Cn2c(CC)nc3c(C)cc(C)nc32)cc1,115%,
Cc1cc2ccc(=O)oc2cc1OC[C@@H](O)C(C)(C)O,,76.6%
NCCCC[C@H](N[C@@H](CCc1ccccc1)C(=O)O)C(=O)N1CCC[C@H]1C(=O)O [Lisinopril],86.2 ± 26%,
NCCCC[C@H](N[C@@H](CCc1ccccc1)C(=O)O)C(=O)N1CCC[C@H]1C(=O)O,87.8%,
CC(C)(C)NC[C@H](O)COc1nsnc1N1CCOCC1,90%,
CC(C)(C)NC[C@H](O)COc1nsnc1N1CCOCC1 [S(-)-Timolol maleate],94.4%,
CC(C)(C)NC[C@H](O)COc1nsnc1N1CCOCC1 [Timolol maleate salt],109%,
CC(C)(C)NC[C@H](O)COc1nsnc1N1CCOCC1 [Timolol (S)],97.6%,
C[C@]12CCC(=O)C=C1CC[C@@H]1[C@@H]2[C@@H](O)C[C@@]2(C)[C@H]1CC[C@]2(O)C(=O)COC(=O)CCC(=O)O,66.8%,
C[C@]12CCC(=O)C=C1CC[C@@H]1[C@@H]2[C@@H](O)C[C@@]2(C)[C@H]1CC[C@]2(O)C(=O)COC(=O)CCC(=O)O [hydrocortisone 21-hemisuccinate],,54.7%
c1ccc2c(c1)CCC[C@H]2Nc1nc2ccccc2[nH]1 [NS8593 hydrochloride],81%,
O=C(Nc1cccc2c(=O)cc(-c3nnn[nH]3)oc12)c1ccc(OCCCCc2ccccc2)cc1 [Pranlukast],80.2 ± 0.87%,
COc1cc(-c2oc3c(OC)c(O)cc(O)c3c(=O)c2O)ccc1O [Limocitrin],,79.1%
CCOC(=O)[C@H](CCc1ccccc1)N[C@H]1CCc2ccccc2N(CC(=O)O)C1=O [Benazepril HCl],106%,
C=CCN1CCc2cc(O)c(O)cc2C(c2ccccc2)C1 (racemic),113%,
O=C1CCC(c2ccc(-n3ccnc3)cc2)=NN1 [Imazodan],96.6%,
COC1=C(OC)C(=O)C(CCCCCCCCCCO)=C(C)C1=O [Idebenone],75.8 ± 7.6%,
COC1=C(OC)C(=O)C(CCCCCCCCCCO)=C(C)C1=O,81.7 ± 36%,
CCNC(=O)N1CCN(CCCC(c2ccc(F)cc2)c2ccc(F)cc2)CC1 [Amperozide hydrochloride],84.2%,
Fc1ccc(C(OCCCc2cnc[nH]2)c2ccc(F)cc2)cc1,96.7%,
NCC(O)c1ccc(O)c(O)c1 (racemic) [(±)-Norepinephrine (+)bitartrate],61%,
NC(CCCP(=O)(O)O)C(=O)O (racemic) [(±)-2-Amino-5-phosphonopentanoic acid],78.7%,
CCOC(=O)OC(C)OC(=O)[C@@H]1N2C(=O)[C@@H](NC(=O)[C@H](N)c3ccccc3)[C@H]2SC1(C)C (stereo partly drawn),87.4%,
CCOC(=O)OC(C)OC(=O)[C@@H]1N2C(=O)[C@@H](NC(=O)[C@H](N)c3ccccc3)[C@H]2SC1(C)C (stereo partly drawn) [Bacampicillin hydrochloride],78.8%,

Compound,HMGB1-induced TNF-alpha production (compound concentration: 3 uM),HMGB1-induced TNF-alpha production [1]
Nc1nc(F)nc2c1ncn2[C@@H]1O[C@H](CO)[C@@H](O)[C@@H]1O [Fludarabine],121%,
"Nc1nc2c(c(=O)[nH]1)N=C(CNc1ccc(C(=O)N[C@@H](CCC(=O)O)C(=O)O)cc1)CN2 [Dihydrofolic acid, 90%]",,72.9%
CCc1cccc(N(C)C(=N)Nc2cccc3ccccc23)c1,80.5%,
CN1CCc2cc3c(cc2C(=O)Cc2ccc4c(c2C1)OCO4)OCO3 [Protopine],,66.2%
CC[C@H]1OC(=O)[C@H](C)[C@@H](O[C@H]2C[C@@](C)(OC)[C@@H](O)[C@H](C)O2)[C@H](C)[C@@H](O[C@@H]2O[C@H](C)C[C@H](N(C)C)[C@H]2O)[C@](C)(O)C[C@@H](C)/C(=N\OCOCCOC)[C@H](C)[C@@H](O)[C@]1(C)O [Roxithromycin],103 ± 5.7%,
CC[C@H]1OC(=O)[C@H](C)[C@@H](O[C@H]2C[C@@](C)(OC)[C@@H](O)[C@H](C)O2)[C@H](C)[C@@H](O[C@@H]2O[C@H](C)C[C@H](N(C)C)[C@H]2O)[C@](C)(O)C[C@@H](C)/C(=N\OCOCCOC)[C@H](C)[C@@H](O)[C@]1(C)O,64.4%,
O=C([O-])[C@H]1/C(=C/CO)O[C@@H]2CC(=O)N21.[Li+],95.1%,
CC(C)C[C@H](NC(=O)[C@@H](Cc1c[nH]c2ccccc12)NC(=O)[C@H](Cc1ccc(O)cc1)NC(=O)[C@H](CO)NC(=O)[C@H](Cc1c[nH]c2ccccc12)NC(=O)[C@H](Cc1c[nH]cn1)NC(=O)[C@@H]1CCC(=O)N1)C(=O)N[C@@H](CCCNC(=N)N)C(=O)N1CCC[C@H]1C(=O)NCC(N)=O [Triptorelin],87.1%,
CC(=O)N[C@@H](CC(C)C)C(=O)O,80%,
CC(=O)N[C@@H](CC(C)C)C(=O)O [N-Acetyl-L-leucine],107%,
Nc1nc(=O)c2nc(CNc3ccc(C(=O)N[C@@H](CCC(=O)O)C(=O)O)cc3)cnc2[nH]1,75.6%,
Nc1nc(=O)c2nc(CNc3ccc(C(=O)N[C@@H](CCC(=O)O)C(=O)O)cc3)cnc2[nH]1 [Folic acid],112%,
C=C1CC[C@H](O)C/C1=C/C=C1\CCC[C@]2(C)[C@@H]([C@H](C)CCCC(C)(C)O)CC[C@@H]12 [Calcifediol],79.5%,
CC(N)=O [Acetamide],96.1%,
"Cc1ccc2oc(=O)c(-c3ccc(O)cc3)c(C)c2c1 [4,6-Dimethyl-3(4'-hydroxyphenyl)coumarin]",,69.9%
Nc1nc(Cl)nc2c1ncn2[C@@H]1O[C@H](CO)[C@@H](O)[C@@H]1F [Clofarabine],121%,
O=C1CN2Cc3c(ccc(Cl)c3Cl)N=C2N1,110% and 91.1%,
O=C1CN2Cc3c(ccc(Cl)c3Cl)N=C2N1 [Anagrelide],94.3%,
CC(C)=CCCC(C)CCO (stereo not drawn) [Citronellol],,73.5%
CC(C)NCC(O)COc1ccc(COCCOC(C)C)cc1 (stereo not drawn) [Bisoprolol hemifumarate salt],98.2%,
CC(C)NCC(O)COc1ccc(COCCOC(C)C)cc1 (stereo not drawn),103.8 ± 0.22%,
CC(C)NCC(O)COc1ccc(COCCOC(C)C)cc1 (stereo not drawn) [Bisoprolol fumarate],73.8%,
CC(N)(C(=O)O)c1ccc(C(=O)O)cc1 (racemic) [(±)-alpha-Methyl-4-carboxyphenylglycine],117%,
